Results are given in words; binding and its absence hold for the method and conditions named. For some of these results: Binding calls can cover weak binding; strength is not graded here.
Key:
[1] = target: GST-PBP2 (Sulfolobus solfataricus); assay: pull-down; GST-fusion protein on glutathione sepharose (~10 μg) and 10 μg of target in 100 μl TBST (10 mM Tris pH 8, 150 mM NaCl, 0.1% Tween 20), room temperature 30 min; Coomassie staining or western blotting; both purified
[2] = target: GST-PBP1 (Sulfolobus solfataricus) (UniProt Q980X5); assay: as above
[3] = target: GST-PBP2 (Sulfolobus solfataricus); assay: pull-down; GST-PBP2 on glutathione sepharose with recombinant PBP1 in the presence of recombinant PolB1; TBST, room temperature; Coomassie staining; both purified
[4] = target: MBP fused to the first 78 amino acids of PBP1 (MBP-PBP1ΔC) (Sulfolobus solfataricus) (UniProt Q980X5); assay: pull-down; MBP fusion protein on Amylose Resin beads with target protein in buffer A (10 mM HEPES pH 7.5, 100 mM NaCl, 1 mM DTT), room temperature 30 min; Coomassie or silver staining; both purified
[5] = target: MBP-tagged PBP1 (Sulfolobus solfataricus) (UniProt Q980X5); assay: as above
[6] = target: MBP fused to the C-terminal tail of PBP1 (MBP-CT) (Sulfolobus solfataricus); assay: as above
[7] = target: MBP-tagged PBP2 (Sulfolobus solfataricus); assay: as above

Chains of the proteins cited; added tags and fusions are not shown. Lines headed by an entry give the natural chain unless they say otherwise; changes in a name come on top.
UniProt Q980X5: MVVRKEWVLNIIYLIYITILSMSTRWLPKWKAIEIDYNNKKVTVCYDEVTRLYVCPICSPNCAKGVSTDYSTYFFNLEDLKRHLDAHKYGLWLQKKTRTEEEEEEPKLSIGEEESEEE

B1: recombinant PolB1 of Sulfolobus solfataricus (enzyme, UniProt P26811 36-882)
chain: VVRREWLEEAQENKIYFLLQVDYDGKKGKAVCKLFDKETQKIYALYDNTGHKPYFLVDLEPDKVGKIPKIVRDPSFDHIETVSKIDPYTWNKFKLTKIVVRDPLAVRRLRNDVPKAYEAHIKYFNNYMYDIGLIPGMPYVVKNGKLESVYLSLDEKDVEEIKKAFADSDEMTRQMAVDWLPIFETEIPKIKRVAIDIEVYTPVKGRIPDSQKAEFPIISIALAGSDGLKKVLVLNRNDVNEGSVKLDGISVERFNTEYELLGRFFDILLEYPIVLTFNGDDFDLPYIYFRALKLGYFPEEIPIDVAGKDEAKYLAGLHIDLYKFFFNKAVRNYAFEGKYNEYNLDAVAKALLGTSKVKVDTLISFLDVEKLIEYNFRDAEITLQLTTFNNDLTMKLIVLFSRISRLGIEELTRTEISTWVKNLYYWEHRKRNWLIPLKEEILAKSSNIRTSALIKGKGYKGAVVIDPPAGIFFNITVLDFASLYPSIIRTWNLSYETVDIQQCKKPYEVKDETGEVLHIVCMDRPGITAVITGLLRDFRVKIYKKKAKNPNNSEEQKLLYDVVQRAMKVFINATYGVFGAETFPLYAPAVAESVTALGRYVITSTVKKAREEGLTVLYGDTDSLFLLNPPKNSLENIIKWVKTTFNLDLEVDKTYKFVAFSGLKKNYFGVYQDGKVDIKGMLVKKRNTPEFVKKVFNEVKELMISINSPNDVKEIKRKIVDVVKGSYEKLKNKGYNLDELAFKVMLSKPLDAYKKNTPQHVKAALQLRPFGVNVLPRDIIYYVKVRSKDGVKPVQLAKVTEIDAEKYLEALRSTFEQILRAFGVSWDEIAATMSIDSFFSYPSKGNS
**Q.** What does the source list for B1?
**A.** binding [1]: binds; binding [2]: binds; binding [3]: binds; binding [4]: binds; binding [5]: binds; binding [6]: no binding; binding [7]: binds

Source: PMC5418573
